Laboratory results reported in paper PMC3876986, “The Velvet Family of Fungal Regulators Contains a DNA-Binding Domain Structurally Similar to NF-κB”.

How the values were obtained:
Experiment in all cases: EMSA
Settings in all cases: EMSA: 10 mM HEPES/NaOH pH 7.4, 150 mM NaCl, ~53 pmol DNA in 10 ul, RT 15 min; DNA:protein molar ratios 1:0.3 to 1:9; 6% PAGE, 0.5% TBE, ethidium bromide; recombinant protein; residues 1-190; protein details: Strep-tag (C-terminal)
[1] = molecular target: VosA1-190 K42A (Aspergillus nidulans) (UniProt Q5BBX1)
[2] = molecular target: VosA1-190 K39A (Aspergillus nidulans) (UniProt Q5BBX1)
[3] = molecular target: VosA1-190 R41A (Aspergillus nidulans) (UniProt Q5BBX1)
[4] = molecular target: VosA1-190 K37A (Aspergillus nidulans) (UniProt Q5BBX1)

Measured: binding result

ATTCGGCGACTAGGATCTTACTGGCCGCGGCCGAG (double strand) [brlA 35 bp probe (OHS301/302)]
binds more weakly: [1] | [2] | [3] | [4]

The comparison behind a weaker result is the experiment's own reference, which may not be listed here.
